# In the supplement of paper PMC8728848:
# The other results are listed elsewhere or left out.
# B1: Agalectin (Anopheles gambiae) (protein)
# chain: MSNRPFTAKFPRYPENGDEVFIRGKLKDDAKSFSVNFCLPRPAQVAEHQTPPYIALHFKTIYDERDDTSRVVLNWKNLQWQQEEVLDNYWHVDRSQTFRVVFRLHEDCIKVFVNSVDHPPDYQFPVQLPLDQIESIELWDDVEHVEEISFRYDNGNSY
# Experiments:
# Experiment in all cases: glycan array binding signal (z-score within array); higher = stronger binding
# Conditions in all cases: glycan notation: IUPAC condensed, linker removed
# Neu5Ac(a2-3)GalNAc = molecular target: Neu5Ac(a2-3)GalNAc
# In short: (§1)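 From the Consortium for Functional Glycomics database, 3228 arrays were curated, keeping only those whose protein sequence was available. Binding is given as a within-array Z-score averaged across arrays sharing a protein sequence and across linkers. Negative Z-scores can be read as non-binding.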
# [1] = molecular target: Neu5Ac(a2-3)GalNAc(b1-4)GlcNAc
# In short: as §1
# [2] = molecular target: Neu5Ac(a2-3)[GalNAc(b1-4)]Gal(b1-4)Glc
# In short: as §1
# [3] = molecular target: Neu5Ac(a2-3)[GalNAc(b1-4)]Gal(b1-4)GlcNAc
# In short: as §1
# [4] = molecular target: Neu5Ac(a2-3)[GalNAc(b1-4)]Gal(b1-4)GlcNAc(b1-3)GalNAc
# In short: as §1
# [5] = molecular target: Neu5Ac(a2-3)[Neu5Ac(a2-6)]GalNAc
# In short: as §1
# Neu5Ac(a2-6)Gal = molecular target: Neu5Ac(a2-6)Gal
# In short: as §1
# [6] = molecular target: Neu5Ac(a2-6)Gal(b1-3)GlcNAc(b1-3)[Gal(b1-4)GlcNAc(b1-6)]Gal(b1-4)Glc
# In short: as §1
# Neu5Ac(a2-6)Gal(b1-4)Glc = molecular target: Neu5Ac(a2-6)Gal(b1-4)Glc
# In short: as §1
# [7] = molecular target: Neu5Ac(a2-6)Gal(b1-4)GlcNAc
# In short: as §1
# [8] = molecular target: Neu5Ac(a2-6)Gal(b1-4)GlcNAc(b1-2)Man
# In short: as §1
# [9] = molecular target: Neu5Ac(a2-6)Gal(b1-4)GlcNAc(b1-2)Man(a1-3)Man(b1-4)GlcNAc(b1-4)GlcNAc
# In short: as §1
# [10] = molecular target: Neu5Ac(a2-6)Gal(b1-4)GlcNAc(b1-2)Man(a1-3)[Gal(b1-4)GlcNAc(b1-2)Man(a1-6)]Man(b1-4)GlcNAc(b1-4)GlcNAc
# In short: as §1
# [11] = molecular target: Neu5Ac(a2-6)Gal(b1-4)GlcNAc(b1-2)Man(a1-3)[GlcNAc(b1-2)Man(a1-6)]Man(b1-4)GlcNAc(b1-4)GlcNAc
# In short: as §1
# [12] = molecular target: Neu5Ac(a2-6)Gal(b1-4)GlcNAc(b1-2)Man(a1-3)[GlcNAc(b1-4)][Neu5Ac(a2-6)Gal(b1-4)GlcNAc(b1-2)Man(a1-6)]Man(b1-4)GlcNAc(b1-4)GlcNAc
# In short: as §1
# [13] = molecular target: Neu5Ac(a2-6)Gal(b1-4)GlcNAc(b1-2)Man(a1-3)[Man(a1-6)]Man(b1-4)GlcNAc(b1-4)GlcNAc
# In short: as §1
# [14] = molecular target: Neu5Ac(a2-6)Gal(b1-4)GlcNAc(b1-2)Man(a1-3)[Neu5Ac(a2-3)Gal(b1-4)GlcNAc(b1-2)Man(a1-6)]Man(b1-4)GlcNAc(b1-4)GlcNAc
# In short: as §1
# [15] = molecular target: Neu5Ac(a2-6)Gal(b1-4)GlcNAc(b1-2)Man(a1-3)[Neu5Ac(a2-6)Gal(b1-4)GlcNAc(b1-2)Man(a1-6)]Man(b1-4)GlcNAc(b1-4)GlcNAc
# In short: as §1
# [16] = molecular target: Neu5Ac(a2-6)Gal(b1-4)GlcNAc(b1-2)Man(a1-3)[Neu5Ac(a2-6)Gal(b1-4)GlcNAc(b1-2)Man(a1-6)]Man(b1-4)GlcNAc(b1-4)[Fuc(a1-6)]GlcNAc
# In short: as §1
# [17] = molecular target: Neu5Ac(a2-6)Gal(b1-4)GlcNAc(b1-2)Man(a1-6)Man(b1-4)GlcNAc(b1-4)GlcNAc
# In short: as §1
# [18] = molecular target: Neu5Ac(a2-6)Gal(b1-4)GlcNAc(b1-2)Man(a1-6)[Gal(b1-4)GlcNAc(b1-2)Man(a1-3)]Man(b1-4)GlcNAc(b1-4)GlcNAc
# In short: as §1
# [19] = molecular target: Neu5Ac(a2-6)Gal(b1-4)GlcNAc(b1-2)Man(a1-6)[GlcNAc(b1-2)Man(a1-3)]Man(b1-4)GlcNAc(b1-4)GlcNAc
# In short: as §1
# [20] = molecular target: Neu5Ac(a2-6)Gal(b1-4)GlcNAc(b1-2)Man(a1-6)[Man(a1-3)]Man(b1-4)GlcNAc(b1-4)GlcNAc
# In short: as §1
# [21] = molecular target: Neu5Ac(a2-6)Gal(b1-4)GlcNAc(b1-2)[Neu5Ac(a2-6)Gal(b1-4)GlcNAc(b1-4)]Man(a1-3)[GlcNAc(b1-4)][Neu5Ac(a2-6)Gal(b1-4)GlcNAc(b1-2)[Neu5Ac(a2-6)Gal(b1-4)GlcNAc(b1-6)]Man(a1-6)]Man(b1-4)GlcNAc(b1-4)GlcNAc
# In short: as §1
# [22] = molecular target: Neu5Ac(a2-6)Gal(b1-4)GlcNAc(b1-2)[Neu5Ac(a2-6)Gal(b1-4)GlcNAc(b1-4)]Man(a1-3)[GlcNAc(b1-4)][Neu5Ac(a2-6)Gal(b1-4)GlcNAc(b1-4)Man(a1-6)]Man(b1-4)GlcNAc(b1-4)GlcNAc
# In short: as §1
# [23] = molecular target: Neu5Ac(a2-6)Gal(b1-4)GlcNAc(b1-2)[Neu5Ac(a2-6)Gal(b1-4)GlcNAc(b1-6)]Man(a1-6)[Neu5Ac(a2-6)Gal(b1-4)GlcNAc(b1-2)Man(a1-3)][GlcNAc(b1-4)]Man(b1-4)GlcNAc(b1-4)GlcNAc
# In short: as §1
# [24] = molecular target: Neu5Ac(a2-6)Gal(b1-4)GlcNAc(b1-3)Gal(b1-3)GlcNAc
# In short: as §1
# [25] = molecular target: Neu5Ac(a2-6)Gal(b1-4)GlcNAc(b1-3)Gal(b1-4)GlcNAc
# In short: as §1
# [26] = molecular target: Neu5Ac(a2-6)Gal(b1-4)GlcNAc(b1-3)Gal(b1-4)GlcNAc(b1-2)Man(a1-3)[Neu5Ac(a2-6)Gal(b1-4)GlcNAc(b1-3)Gal(b1-4)GlcNAc(b1-2)Man(a1-6)]GalNAc
# In short: as §1
# [27] = molecular target: Neu5Ac(a2-6)Gal(b1-4)GlcNAc(b1-3)Gal(b1-4)GlcNAc(b1-3)Gal(b1-4)GlcNAc
# In short: as §1
# [28] = molecular target: Neu5Ac(a2-6)Gal(b1-4)GlcNAc(b1-3)Gal(b1-4)GlcNAc(b1-3)Gal(b1-4)GlcNAc(b1-2)Man(a1-3)[Neu5Ac(a2-6)Gal(b1-4)GlcNAc(b1-3)Gal(b1-4)GlcNAc(b1-3)Gal(b1-4)GlcNAc(b1-2)Man(a1-6)]GalNAc
# In short: as §1
# [29] = molecular target: Neu5Ac(a2-6)Gal(b1-4)GlcNAc(b1-3)Gal(b1-4)GlcNAc(b1-3)GalNAc
# In short: as §1
# [30] = molecular target: Neu5Ac(a2-6)Gal(b1-4)GlcNAc(b1-3)Gal(b1-4)GlcNAc(b1-3)[Neu5Ac(a2-6)Gal(b1-4)GlcNAc(b1-3)Gal(b1-4)GlcNAc(b1-6)]GalNAc
# In short: as §1
# [31] = molecular target: Neu5Ac(a2-6)Gal(b1-4)GlcNAc(b1-3)Gal(b1-4)GlcNAc(b1-6)[Gal(b1-3)]GalNAc
# In short: as §1
# [32] = molecular target: Neu5Ac(a2-6)Gal(b1-4)GlcNAc(b1-3)Gal(b1-4)[Fuc(a1-3)]GlcNAc(b1-3)Gal(b1-4)[Fuc(a1-3)]GlcNAc
# In short: as §1
# [33] = molecular target: Neu5Ac(a2-6)Gal(b1-4)GlcNAc(b1-3)GalNAc
# In short: as §1
# [34] = molecular target: Neu5Ac(a2-6)Gal(b1-4)GlcNAc(b1-3)[Neu5Ac(a2-6)Gal(b1-4)GlcNAc(b1-6)]GalNAc
# In short: as §1
# [35] = molecular target: Neu5Ac(a2-6)Gal(b1-4)GlcNAc(b1-6)GalNAc
# In short: as §1
# [36] = molecular target: Neu5Ac(a2-6)Gal(b1-4)GlcNAc(b1-6)[Gal(b1-3)GlcNAc(b1-3)]Gal(b1-4)Glc
# In short: as §1
# [37] = molecular target: Neu5Ac(a2-6)Gal(b1-4)GlcNAc(b1-6)[Gal(b1-3)]GalNAc
# In short: as §1
# [38] = molecular target: Neu5Ac(a2-6)Gal(b1-4)GlcNAc6S
# In short: as §1
# Neu5Ac(a2-6)GalNAc = molecular target: Neu5Ac(a2-6)GalNAc
# In short: as §1
# [39] = molecular target: Neu5Ac(a2-6)GalNAc(b1-4)GlcNAc
# In short: as §1
# [40] = molecular target: Neu5Ac(a2-6)GalNAc(b1-4)GlcNAc6S
# In short: as §1
# [41] = molecular target: Neu5Ac(a2-6)GlcNAc(b1-4)GlcNAc
# In short: as §1
binder,measurement,setting,value
B1,glycan array binding signal (z-score),Neu5Ac(a2-3)GalNAc,0.015
same,glycan array binding signal (z-score),[1],-0.863
same,glycan array binding signal (z-score),[2],-0.448
same,glycan array binding signal (z-score),[3],-0.255
same,glycan array binding signal (z-score),[4],0.174
same,glycan array binding signal (z-score),[5],0.542
same,glycan array binding signal (z-score),Neu5Ac(a2-6)Gal,-0.159
same,glycan array binding signal (z-score),[6],-0.951
same,glycan array binding signal (z-score),Neu5Ac(a2-6)Gal(b1-4)Glc,0.643
same,glycan array binding signal (z-score),[7],0.241
same,glycan array binding signal (z-score),[8],-0.2
same,glycan array binding signal (z-score),[9],-0.062
same,glycan array binding signal (z-score),[10],-0.321
same,glycan array binding signal (z-score),[11],-0.527
same,glycan array binding signal (z-score),[12],-0.378
same,glycan array binding signal (z-score),[13],2.21
same,glycan array binding signal (z-score),[14],-0.49
same,glycan array binding signal (z-score),[15],-0.355
same,glycan array binding signal (z-score),[16],5.84
same,glycan array binding signal (z-score),[17],0.632
same,glycan array binding signal (z-score),[18],0.911
same,glycan array binding signal (z-score),[19],0
same,glycan array binding signal (z-score),[20],0.592
same,glycan array binding signal (z-score),[21],-0.174
same,glycan array binding signal (z-score),[22],-0.59
same,glycan array binding signal (z-score),[23],-1.09
same,glycan array binding signal (z-score),[24],-0.752
same,glycan array binding signal (z-score),[25],0.757
same,glycan array binding signal (z-score),[26],-0.295
same,glycan array binding signal (z-score),[27],-0.576
same,glycan array binding signal (z-score),[28],2.96
same,glycan array binding signal (z-score),[29],0.187
same,glycan array binding signal (z-score),[30],1.94
same,glycan array binding signal (z-score),[31],0.185
same,glycan array binding signal (z-score),[32],-0.26
same,glycan array binding signal (z-score),[33],-0.455
same,glycan array binding signal (z-score),[34],-0.501
same,glycan array binding signal (z-score),[35],1.29
same,glycan array binding signal (z-score),[36],-0.439
same,glycan array binding signal (z-score),[37],1.88
same,glycan array binding signal (z-score),[38],-1.2
same,glycan array binding signal (z-score),Neu5Ac(a2-6)GalNAc,-0.753
same,glycan array binding signal (z-score),[39],-0.735
same,glycan array binding signal (z-score),[40],-0.365
same,glycan array binding signal (z-score),[41],0.207

# Two records drawn at random from the list so far:
binder,measurement,setting,value
B1,glycan array binding signal (z-score),[38],-1.2
same,glycan array binding signal (z-score),[25],0.757
